Measurements reported in patent US11787839B2, “Targeting α2δ-1-bound glutamate receptors for treating diseases and disorders” (Board of Regents, The University of Texas System, priority 2017, dated 2023).

Test system: α2δ-1
[1] = morphine- vs vehicle-treated rats

CN1CC[C@]23c4c5ccc(O)c4O[C@H]2[C@@H](O)C=C[C@H]3[C@H]1C5.O=S(=O)(O)O [morphine, morphine sulfate]
α2δ-1 level in the DRG and dorsal spinal cord (morphine 5 mg/kg i.p. twice a day for 8 days vs vehicle): significantly higher | GluN1 and α2δ-1 protein levels in spinal cord synaptosomes [1]: significantly higher | α2δ-1-GluN1 protein complex level in the dorsal spinal cord [1]: much higher
